In US20260027116A1, “Methods of Treating Chronic Graft-Versus-Host Disease Following Allogeneic Hematopoietic Stem Cell Transplantation” (Kadmon Corporation, LLC, priority 2022, published 2026):
Further values from the same series stand in other lists.

Assays:
Type in all cases: in vivo, human
lung function [1] = experiment: Example 1: percent predicted FVC change from baseline; conditions: mean (SD)
Procedure: Change From Baseline in Percent Predicted Forced Vital Capacity (FVC) at Each Specified Time Points. FVC was the total amount of air (in liters) exhaled from the lungs during the lung function test measured by spirometer which assessed the change in lung function related to the disease status. Baseline value was defined as valid and last non-missing value obtained within 28 days prior to participant receiving first study medication. EOT visit was performed within 3 days after the participant's last dose of study drug. […] Analysis was performed on mITT population. Here, ‘number analyzed’=participants with available data for each specified category. Here, ‘0’ in the number analyzed field signifies that none of the participants were available for the analysis at the specified time points.

lung function [2] = experiment: Example 1: percent predicted TLC change from baseline; conditions: mean (SD)
Procedure: (§1) Change From Baseline in Percent Predicted Total Lung Capacity (TLC) at Each Specified Time Points. TLC is the volume of air in the lungs upon the maximum effort of inspiration. Baseline value was defined as valid and last non-missing value obtained within 28 days prior to participant receiving first study medication. EOT visit was performed within 3 days after the participant's last dose of study drug. […] Analysis was performed on mITT population. Here, ‘number analyzed’=participants with available data for each specified category. Here, ‘0’ in the number analyzed field signifies that none of the participants were available for the analysis at the specified time points.

lung function [3] = experiment: Example 1: percent predicted FEV1 change from baseline
Procedure: as §1, with “Forced Expiratory Volume in 1 Second (FEV1)” for “Total Lung Capacity (TLC)”, “FEV1 was” for “TLC is”, “air exhaled from the lungs” for “air”, “first second” for “lungs upon the maximum effort”, “a forced expiration as measured by spirometer.” for “inspiration.”, “‘O’” for “‘0’”

lung function [4] = experiment: Example 1: percent predicted HGB corrected DLco change from baseline; conditions: mean (SD)
Excerpt: Change From Baseline in Percent Predicted Hemoglobin (HGB) Corrected Diffusing Capacity of Lung for Carbon Monoxide (DLco) at Each Specified Time Points. DLco is a measurement of the ability of the lungs to transfer gases from the air to the blood. Change from baseline in diffusing capacity of the lung for carbon monoxide (percent predicted hemoglobin level corrected) was reported for this measure. Baseline value was defined as valid and last non-missing value obtained within 28 days prior to participant receiving first study medication. EOT visit was performed within 3 days after the participant's last dose of study drug. […] Analysis was performed on mITT population. Here, ‘number analyzed’=participants with available data for each specified category. Here, ‘O’ in the number analyzed field signifies that none of the participants were available for the analysis at the specified time points.

[5] = Cohort 1: 200 mg QD, Cycle 47, Day 1
[6] = Cohort 2: 200 mg BID, Cycle 37, Day 1
[7] = Cohort 2: 200 mg BID, Cycle 39, Day 1
[8] = Cohort 2: 200 mg BID, Cycle 43, Day 1
[9] = Cohort 3: 400 mg QD, Cycle 39, Day 1
[10] = Cohort 3: 400 mg QD, Cycle 43, Day 1
[11] = Cohort 3: 400 mg QD, Cycle 47, Day 1

CC(C)NC(=O)COc1cccc(-c2nc(Nc3ccc4[nH]ncc4c3)c3ccccc3n2)c1 [Belumosudil, 2-{3-[4-(1H-indazol-5-ylamino)-2-quinazolinyl]phenoxy}-N-(propan-2-yl) acetamide]
Change From Baseline in Percent Predicted Forced Vital Capacity (FVC) (lung function [1]; [5]): 5.0 (—) percent predicted FVC | Change From Baseline in Percent Predicted Forced Vital Capacity (FVC) (lung function [1]; [6]): −24.0 (—) percent predicted FVC | Change From Baseline in Percent Predicted Forced Vital Capacity (FVC) (lung function [1]; [7]): −20.5 (12.0) percent predicted FVC | Change From Baseline in Percent Predicted Forced Vital Capacity (FVC) (lung function [1]; [8]): −18.0 (—) percent predicted FVC | Change From Baseline in Percent Predicted Forced Vital Capacity (FVC) (lung function [1]; [9]): −1.0 (—) percent predicted FVC | Change From Baseline in Percent Predicted Forced Vital Capacity (FVC) (lung function [1]; [10]): −4.0 (—) percent predicted FVC | Change From Baseline in Percent Predicted Forced Vital Capacity (FVC) (lung function [1]; [11]): −2.0 (—) percent predicted FVC | Change From Baseline in Percent Predicted Total Lung Capacity (TLC) (lung function [2]; Cohort 1: 200 mg QD, Cycle 37, Day 1): −7.0 (—) Percent Predicted TLC | Change From Baseline in Percent Predicted Total Lung Capacity (TLC) (lung function [2]; Cohort 1: 200 mg QD, Cycle 38, Day 1): 2.0 (—) Percent Predicted TLC | Change From Baseline in Percent Predicted Total Lung Capacity (TLC) (lung function [2]; Cohort 1: 200 mg QD, Cycle 39, Day 1): 24.0 (28.3) Percent Predicted TLC | Change From Baseline in Percent Predicted Total Lung Capacity (TLC) (lung function [2]; Cohort 1: 200 mg QD, Cycle 40, Day 1): 0.0 (—) Percent Predicted TLC | Change From Baseline in Percent Predicted Total Lung Capacity (TLC) (lung function [2]; Cohort 1: 200 mg QD, Cycle 41, Day 1): 38.0 (—) Percent Predicted TLC | Change From Baseline in Percent Predicted Total Lung Capacity (TLC) (lung function [2]; Cohort 1: 200 mg QD, Cycle 43, Day 1): 33.0 (—) Percent Predicted TLC | Change From Baseline in Percent Predicted Total Lung Capacity (TLC) (lung function [2]; [5]): 19.0 (—) Percent Predicted TLC | Change From Baseline in Percent Predicted Total Lung Capacity (TLC) (lung function [2]; [6]): −41.0 (—) Percent Predicted TLC | Change From Baseline in Percent Predicted Total Lung Capacity (TLC) (lung function [2]; [7]): −30.0 (21.2) Percent Predicted TLC | Change From Baseline in Percent Predicted Total Lung Capacity (TLC) (lung function [2]; [8]): −16.0 (—) Percent Predicted TLC | Change From Baseline in Percent Predicted Total Lung Capacity (TLC) (lung function [2]; [9]): 23.0 (—) Percent Predicted TLC | Change From Baseline in Percent Predicted Total Lung Capacity (TLC) (lung function [2]; [10]): 21.0 (—) Percent Predicted TLC | Change From Baseline in Percent Predicted Total Lung Capacity (TLC) (lung function [2]; [11]): 25.0 (—) Percent Predicted TLC | Change From Baseline in Percent Predicted Forced Expiratory Volume in 1 Second (FEV1), Mean (Standard Deviation) (lung function [3]; Cohort 1: 200 mg QD, Cycle 21, Day 1): −7.4 (10.6) percent predicted FEV1 | Change From Baseline in Percent Predicted Forced Expiratory Volume in 1 Second (FEV1), Mean (Standard Deviation) (lung function [3]; Cohort 1: 200 mg QD, Cycle 23, Day 1): −4.3 (14.6) percent predicted FEV1 | Change From Baseline in Percent Predicted Forced Expiratory Volume in 1 Second (FEV1), Mean (Standard Deviation) (lung function [3]; Cohort 1: 200 mg QD, Cycle 24, Day 1): 2.0 (—) percent predicted FEV1 | Change From Baseline in Percent Predicted Forced Expiratory Volume in 1 Second (FEV1), Mean (Standard Deviation) (lung function [3]; Cohort 2: 200 mg BID, Cycle 20, Day 1): −8.0 (7.1) percent predicted FEV1 | Change From Baseline in Percent Predicted Forced Expiratory Volume in 1 Second (FEV1), Mean (Standard Deviation) (lung function [3]; Cohort 2: 200 mg BID, Cycle 21, Day 1): 0.0 (—) percent predicted FEV1 | Change From Baseline in Percent Predicted Forced Expiratory Volume in 1 Second (FEV1), Mean (Standard Deviation) (lung function [3]; Cohort 2: 200 mg BID, Cycle 22, Day 1): −11.0 (1.4) percent predicted FEV1 | Change From Baseline in Percent Predicted Forced Expiratory Volume in 1 Second (FEV1), Mean (Standard Deviation) (lung function [3]; Cohort 2: 200 mg BID, Cycle 23, Day 1): −12.5 (4.9) percent predicted FEV1 | Change From Baseline in Percent Predicted Forced Expiratory Volume in 1 Second (FEV1), Mean (Standard Deviation) (lung function [3]; Cohort 2: 200 mg BID, Cycle 24, Day 1): −18.0 (—) percent predicted FEV1 | Change From Baseline in Percent Predicted Forced Expiratory Volume in 1 Second (FEV1), Mean (Standard Deviation) (lung function [3]; Cohort 3: 400 mg QD, Cycle 20, Day 1): 4.0 (10.4) percent predicted FEV1 | Change From Baseline in Percent Predicted Forced Expiratory Volume in 1 Second (FEV1), Mean (Standard Deviation) (lung function [3]; Cohort 3: 400 mg QD, Cycle 21, Day 1): −10.0 (19.8) percent predicted FEV1 | Change From Baseline in Percent Predicted Forced Expiratory Volume in 1 Second (FEV1), Mean (Standard Deviation) (lung function [3]; Cohort 3: 400 mg QD, Cycle 22, Day 1): −6.0 (17.0) percent predicted FEV1 | Change From Baseline in Percent Predicted Forced Expiratory Volume in 1 Second (FEV1), Mean (Standard Deviation) (lung function [3]; Cohort 3: 400 mg QD, Cycle 23, Day 1): −4.8 (11.2) percent predicted FEV1 | Change From Baseline in Percent Predicted Forced Expiratory Volume in 1 Second (FEV1), Mean (Standard Deviation) (lung function [3]; Cohort 3: 400 mg QD, Cycle 24, Day 1): −19.0 (—) percent predicted FEV1 | Change From Baseline in Percent Predicted Hemoglobin (HGB) Corrected Diffusing Capacity of Lung for Carbon Monoxide (DLco) (lung function [4]; [5]): 9.660 (—) Percent Predicted HGB Corrected DLco | Change From Baseline in Percent Predicted Hemoglobin (HGB) Corrected Diffusing Capacity of Lung for Carbon Monoxide (DLco) (lung function [4]; [10]): 16.351 (—) Percent Predicted HGB Corrected DLco
